Results from PubChem BioAssay AID1347076 (National Center for Advancing Translational Sciences (NCATS), 2019).
Screen size: about 400,000 compounds; about 13,000 (3.2%) were called active. This list was built around the results that the source calls inconclusive (neither active nor inactive); the mix of calls is not that of the screen. Calls come from the whole dose curve; as a rule, active = well fitted cell-killing curve with a large enough effect; inconclusive = small, poorly fitted or top-dose-only effect, or effect the other way; inactive = flat fitted curve, though single readings scatter. Where the call is inconclusive, the potency comes from a doubtful curve fit.

Assay: qHTS assay for MDR1-selective chemotherapeutics: Primary screen using the drug-selected MDR subline cells KB-V1; note: nearly all actives have a fitted effect of over 60% in size
Settings: KB-V1 MDR cells viability, CellTiter-Glo, 72 h; activity change, negative = cytotoxicity: at 46.1 µM (top of the series)
In short: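 KB-V1, DMEM (no phenol red) + 10% FBS; cpd pin-transferred, titration series; 72 h, 37 degrees C; CellTiter-Glo, luminescence. Data normalized, curve-fit.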
% is set by controls: 0 for no effect and ±100 for the full control effect; potency is the fitted concentration of half-maximal effect.

With COc1cccc(OCc2cc(C(=O)N3CCN(C4CCCCC4)C(=O)C3)no2)c1 as the compound, how does the Potency read?
Its Potency is inconclusive: 32.6 µM [cytotoxic, single point].

With O=C(Nc1nccs1)c1ccc2c(=O)n3c(nc2c1)CCCCC3 as the compound, how does the activity change, negative = cytotoxicity read?
Its activity change, negative = cytotoxicity is inconclusive: -61.1%.

With CCc1ccc(N=C2NC(=O)/C(=C/c3cc(OC)c(O)c(OC)c3)S2)cc1 as the compound, how does the Potency read?
The Potency was inconclusive: 29.1 µM [cytotoxic, single point].

With C[C@H]1CN([C@@H](C)CO)C(=O)CCCn2nncc2CO[C@H]1CN(C)C(=O)C1CCCCC1 as the compound, how does the Potency read?
The Potency was inconclusive: 25.9 µM [rising, single point].

With C[C@H](O)[C@@H]1CN2CCc3c([nH]c4ccccc34)[C@@H]2C[C@@H]1N(C)C(=O)NC1CCCCC1 as the compound, how does the Potency read?
Its Potency is “inactive”.

With CCc1nc2ccccc2n1Cc1ccccc1OC as the compound, how does the Potency read?
The Potency was active: 14.6 µM.

With COc1ccc(-c2nc(C)c(CCNC(=O)C(=O)Nc3cc(C)cc(C)c3)s2)cc1OC as the compound, how does the Potency read?
Its Potency is inconclusive: 2.31 µM [cytotoxic, full curve].

Which Potency does the source give for CS(=O)(=O)c1ncc(Cl)c(C(=O)Nc2ccc(OC(F)F)cc2)n1 here?
The Potency was inconclusive: 29.1 µM [cytotoxic, single point].

Which Potency does the source give for O=C(NCC(c1cccnc1)N1CCN(c2ccccc2)CC1)c1ccco1 (stereo not drawn) here?
The Potency was inconclusive: 20.6 µM [cytotoxic, single point].

With COc1cc2ccc(C(C)=NNC(N)=S)cc2cc1OC as the compound, how does the Potency read?
Its Potency is inconclusive: 23.1 µM [cytotoxic, single point].

With COc1ccc(C)cc1NC(=O)COC(=O)c1c(C)noc1C as the compound, how does the Potency read?
Its Potency is inconclusive: 29.1 µM [rising, single point].

For Cc1cc(C)nc(NC(=O)/C=C/c2ccccc2Cl)c1, which Potency is on record?
Its Potency is inconclusive: 14.6 µM [cytotoxic, partial curve, poor fit].

For COc1cccc(C(C(=O)NCc2ccccc2)N2CCN(C(=O)C3CCCO3)CC2)c1OC (stereo not drawn), which Potency is on record?
Its Potency is “inactive”.

With CNC(=O)c1ccc(N(Cc2ccccc2C)S(C)(=O)=O)cc1 as the compound, how does the Potency read?
The Potency was inconclusive: 20.6 µM [cytotoxic, partial curve, poor fit].

For COc1ccc(OC)c(N(CC(=O)NCCSCc2ccco2)S(=O)(=O)c2ccc(OC)c(OC)c2)c1, which Potency is on record?
Its Potency is inconclusive: 3.26 µM [cytotoxic, partial curve, poor fit].

With CCCc1noc(-c2ccc(-c3ccccc3)cc2)n1 as the compound, how does the Potency read?
The Potency was inconclusive: 29.1 µM [cytotoxic, single point].

Which Potency does the source give for CC1(c2nnnn2-c2ccc3c(c2)OCCO3)CCC(=O)N1Cc1cccc(C(F)(F)F)c1 (stereo not drawn) here?
The Potency was inconclusive: 16.4 µM [cytotoxic, single point].

For CCCCn1nnnc1NCc1ccc(C)s1, which Potency is on record?
The Potency was inconclusive: 20.6 µM [cytotoxic, single point].
